In paper PMC9355226:
These are yes or no findings as the source states them, for the method shown. For some assays here: Tags and fused reporters may be left off the sequences shown. One block for each binder: values may come before it.

What was measured:
CFP-TRIM32 (human) = CFP-TRIM32 (human) (UniProt Q13049); test: sorting of fluorescent cytoplasmic bodies with a cell sorter, then LC-MS/MS; HEK293 cells transfected with CFP-TRIM32, lysed in buffer with 1% Triton X-100 and 150 mM NaCl, sonicated; particles sorted by CFP, FSC and BSC gates (larger than 1.5 um); 10,000 particles solubilised, digested with trypsin, LC-MS/MS; control: naive HEK293 cells; hits with ratio >2 over the control
[1] = target: CFP-TRIM32 (human), Q13049; test: as above; conditions: remark: other sources report otherwise

- binding (CFP-TRIM32 (human)): no binding
B1: NDP52 (protein, UniProt Q13137 1-446)
chain: MEETIKDPPTSAVLLDHCHFSQVIFNSVEKFYIPGGDVTCHYTFTQHFIPRRKDWIGIFRVGWKTTREYYTFMWVTLPIDLNNKSAKQQEVQFKAYYLPKDDEYYQFCYVDEDGVVRGASIPFQFRPENEEDILVVTTQGEVEEIEQHNKELCKENQELKDSCISLQKQNSDMQAELQKKQEELETLQSINKKLELKVKEQKDYWETELLQLKEQNQKMSSENEKMGIRVDQLQAQLSTQEKEMEKLVQGDQDKTEQLEQLKKENDHLFLSLTEQRKDQKKLEQTVEQMKQNETTAMKKQQELMDENFDLSKRLSENEIICNALQRQKERLEGENDLLKRENSRLLSYMGLDFNSLPYQVPTSDEGGARQNPGLAYGNPYSGIQESSSPSPLSIKKCPICKADDICDHTLEQQQMQPLCFNCPICDKIFPATEKQIFEDHVFCHSL

- binding [1]: no binding
B2: NBR1, Q14596 1-966 (protein)
chain: MEPQVTLNVTFKNEIQSFLVSDPENTTWADIEAMVKVSFDLNTIQIKYLDEENEEVSINSQGEYEEALKMAVKQGNQLQMQVHEGHHVVDEAPPPVVGAKRLAARAGKKPLAHYSSLVRVLGSDMKTPEDPAVQSFPLVPCDTDQPQDKPPDWFTSYLETFREQVVNETVEKLEQKLHEKLVLQNPSLGSCPSEVSMPTSEETLFLPENQFSWHIACNNCQRRIVGVRYQCSLCPSYNICEDCEAGPYGHDTNHVLLKLRRPVVGSSEPFCHSKYSTPRLPAALEQVRLQKQVDKNFLKAEKQRLRAEKKQRKAEVKELKKQLKLHRKIHLWNSIHGLQSPKSPLGRPESLLQSNTLMLPLQPCTSVMPMLSAAFVDENLPDGTHLQPGTKFIKHWRMKNTGNVKWSADTKLKFMWGNLTLASTEKKDVLVPCLKAGHVGVVSVEFIAPALEGTYTSHWRLSHKGQQFGPRVWCSIIVDPFPSEESPDNIEKGMISSSKTDDLTCQQEETFLLAKEERQLGEVTEQTEGTAACIPQKAKNVASERELYIPSVDLLTAQDLLSFELLDINIVQELERVPHNTPVDVTPCMSPLPHDSPLIEKPGLGQIEEENEGAGFKALPDSMVSVKRKAENIASVEEAEEDLSGTQFVCETVIRSLTLDAAPDHNPPCRQKSLQMTFALPEGPLGNEKEEIIHIAEEEAVMEEEEDEEDEEEEDELKDEVQSQSSASSEDYIIILPECFDTSRPLGDSMYSSALSQPGLERGAEGKPGVEAGQEPAEAGERLPGGENQPQEHSISDILTTSQTLETVPLIPEVVELPPSLPRSSPCVHHHGSPGVDLPVTIPEVSSVPDQIRGEPRGSSGLVNSRQKSYDHSRHHHGSSIAGGLVKGALSVAASAYKALFAGPPVTAQPIISEDQTAALMAHLFEMGFCDRQLNLRLLKKHNYNILQVVTELLQLNNNDWYSQRY
